Laboratory results from the supplement of paper PMC12067093, “Discovery and optimisation of a covalent ligand for TRIM25 and its application to targeted protein ubiquitination” (Chemical Science, 2025).
The other results are listed elsewhere or left out.

Protein sequences, listed by entry. Tags and fused reporters are not part of them. Lines headed by an entry give the natural chain unless they say otherwise; changes in a name come on top.
UniProt P33992: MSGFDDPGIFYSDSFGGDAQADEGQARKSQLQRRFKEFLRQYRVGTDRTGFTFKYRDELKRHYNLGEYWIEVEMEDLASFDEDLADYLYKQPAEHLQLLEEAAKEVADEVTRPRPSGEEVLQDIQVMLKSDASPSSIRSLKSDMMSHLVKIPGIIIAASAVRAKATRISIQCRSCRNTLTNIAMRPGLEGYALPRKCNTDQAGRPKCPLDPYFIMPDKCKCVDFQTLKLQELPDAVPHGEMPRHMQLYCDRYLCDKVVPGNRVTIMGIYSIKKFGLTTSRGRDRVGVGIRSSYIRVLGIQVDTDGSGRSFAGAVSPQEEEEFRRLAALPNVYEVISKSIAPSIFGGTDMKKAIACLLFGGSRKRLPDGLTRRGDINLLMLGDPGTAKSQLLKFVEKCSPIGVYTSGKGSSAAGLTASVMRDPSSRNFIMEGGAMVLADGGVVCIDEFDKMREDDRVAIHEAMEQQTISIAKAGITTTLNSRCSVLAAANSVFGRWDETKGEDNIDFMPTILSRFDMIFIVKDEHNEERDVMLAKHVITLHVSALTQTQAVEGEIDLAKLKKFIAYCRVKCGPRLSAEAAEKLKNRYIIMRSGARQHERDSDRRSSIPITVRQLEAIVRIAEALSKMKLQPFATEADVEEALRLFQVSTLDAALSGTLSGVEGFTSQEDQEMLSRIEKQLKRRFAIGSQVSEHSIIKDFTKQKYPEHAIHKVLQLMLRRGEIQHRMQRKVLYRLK
UniProt P49736, whole entry, looked up: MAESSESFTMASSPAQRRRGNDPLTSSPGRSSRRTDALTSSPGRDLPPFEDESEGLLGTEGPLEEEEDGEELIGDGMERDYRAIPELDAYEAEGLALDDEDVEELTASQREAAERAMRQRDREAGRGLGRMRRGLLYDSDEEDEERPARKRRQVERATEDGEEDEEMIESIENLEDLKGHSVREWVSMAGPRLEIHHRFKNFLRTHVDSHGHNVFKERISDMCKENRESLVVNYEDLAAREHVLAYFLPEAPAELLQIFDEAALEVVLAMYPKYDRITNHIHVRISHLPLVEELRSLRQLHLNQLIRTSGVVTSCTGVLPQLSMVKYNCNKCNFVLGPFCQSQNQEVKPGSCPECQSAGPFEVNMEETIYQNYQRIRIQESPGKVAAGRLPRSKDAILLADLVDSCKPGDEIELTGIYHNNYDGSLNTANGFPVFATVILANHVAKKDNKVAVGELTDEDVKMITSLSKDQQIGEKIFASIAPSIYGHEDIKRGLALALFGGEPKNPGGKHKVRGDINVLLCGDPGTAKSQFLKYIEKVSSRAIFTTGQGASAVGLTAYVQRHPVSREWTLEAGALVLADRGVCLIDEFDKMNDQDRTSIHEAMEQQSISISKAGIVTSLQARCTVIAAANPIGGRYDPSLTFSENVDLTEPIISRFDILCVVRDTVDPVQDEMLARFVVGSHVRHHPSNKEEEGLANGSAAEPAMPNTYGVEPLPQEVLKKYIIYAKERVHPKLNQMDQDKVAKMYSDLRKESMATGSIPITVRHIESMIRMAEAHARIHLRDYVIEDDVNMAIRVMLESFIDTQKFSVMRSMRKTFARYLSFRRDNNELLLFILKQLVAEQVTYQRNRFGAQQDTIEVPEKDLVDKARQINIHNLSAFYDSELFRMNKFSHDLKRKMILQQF
UniProt Q7L2J0: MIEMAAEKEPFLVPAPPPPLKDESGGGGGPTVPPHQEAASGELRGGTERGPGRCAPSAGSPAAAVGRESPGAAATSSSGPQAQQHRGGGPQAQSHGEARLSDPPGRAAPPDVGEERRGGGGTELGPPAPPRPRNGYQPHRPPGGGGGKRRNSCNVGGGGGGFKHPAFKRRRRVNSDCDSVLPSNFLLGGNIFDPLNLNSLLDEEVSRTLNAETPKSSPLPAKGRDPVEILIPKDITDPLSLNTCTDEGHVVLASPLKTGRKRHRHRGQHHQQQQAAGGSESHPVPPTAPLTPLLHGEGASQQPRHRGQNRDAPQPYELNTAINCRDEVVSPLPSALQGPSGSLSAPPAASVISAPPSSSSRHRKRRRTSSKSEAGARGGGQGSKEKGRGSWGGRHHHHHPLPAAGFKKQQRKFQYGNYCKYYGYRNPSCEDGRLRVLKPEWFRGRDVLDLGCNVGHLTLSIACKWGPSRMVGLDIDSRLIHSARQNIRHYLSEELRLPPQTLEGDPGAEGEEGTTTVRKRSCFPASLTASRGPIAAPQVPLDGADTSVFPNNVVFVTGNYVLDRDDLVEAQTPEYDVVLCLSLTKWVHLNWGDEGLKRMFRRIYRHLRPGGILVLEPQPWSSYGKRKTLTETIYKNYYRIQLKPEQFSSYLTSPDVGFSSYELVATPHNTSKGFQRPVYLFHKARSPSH
UniProt Q14566: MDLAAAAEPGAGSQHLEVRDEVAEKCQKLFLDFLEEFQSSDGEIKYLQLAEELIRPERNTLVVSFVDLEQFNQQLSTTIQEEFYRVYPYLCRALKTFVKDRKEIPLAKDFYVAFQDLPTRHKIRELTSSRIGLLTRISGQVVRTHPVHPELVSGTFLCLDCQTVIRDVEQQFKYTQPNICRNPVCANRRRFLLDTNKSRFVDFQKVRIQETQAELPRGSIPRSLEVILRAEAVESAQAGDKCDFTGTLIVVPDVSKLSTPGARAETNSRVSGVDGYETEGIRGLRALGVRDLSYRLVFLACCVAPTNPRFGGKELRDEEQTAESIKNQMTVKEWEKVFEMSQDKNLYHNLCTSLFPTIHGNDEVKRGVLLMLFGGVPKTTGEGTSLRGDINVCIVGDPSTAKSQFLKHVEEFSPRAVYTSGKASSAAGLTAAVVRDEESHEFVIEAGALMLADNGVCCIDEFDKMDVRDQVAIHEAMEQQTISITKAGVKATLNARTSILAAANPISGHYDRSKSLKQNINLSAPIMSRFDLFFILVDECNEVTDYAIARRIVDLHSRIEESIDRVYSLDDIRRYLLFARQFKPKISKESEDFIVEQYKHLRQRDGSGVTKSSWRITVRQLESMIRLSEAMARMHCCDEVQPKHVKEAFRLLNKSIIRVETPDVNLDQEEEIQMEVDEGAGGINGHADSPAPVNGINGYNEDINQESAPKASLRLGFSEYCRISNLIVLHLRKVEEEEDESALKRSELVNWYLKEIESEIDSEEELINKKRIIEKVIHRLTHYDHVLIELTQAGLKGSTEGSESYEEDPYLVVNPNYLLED
UniProt P33991: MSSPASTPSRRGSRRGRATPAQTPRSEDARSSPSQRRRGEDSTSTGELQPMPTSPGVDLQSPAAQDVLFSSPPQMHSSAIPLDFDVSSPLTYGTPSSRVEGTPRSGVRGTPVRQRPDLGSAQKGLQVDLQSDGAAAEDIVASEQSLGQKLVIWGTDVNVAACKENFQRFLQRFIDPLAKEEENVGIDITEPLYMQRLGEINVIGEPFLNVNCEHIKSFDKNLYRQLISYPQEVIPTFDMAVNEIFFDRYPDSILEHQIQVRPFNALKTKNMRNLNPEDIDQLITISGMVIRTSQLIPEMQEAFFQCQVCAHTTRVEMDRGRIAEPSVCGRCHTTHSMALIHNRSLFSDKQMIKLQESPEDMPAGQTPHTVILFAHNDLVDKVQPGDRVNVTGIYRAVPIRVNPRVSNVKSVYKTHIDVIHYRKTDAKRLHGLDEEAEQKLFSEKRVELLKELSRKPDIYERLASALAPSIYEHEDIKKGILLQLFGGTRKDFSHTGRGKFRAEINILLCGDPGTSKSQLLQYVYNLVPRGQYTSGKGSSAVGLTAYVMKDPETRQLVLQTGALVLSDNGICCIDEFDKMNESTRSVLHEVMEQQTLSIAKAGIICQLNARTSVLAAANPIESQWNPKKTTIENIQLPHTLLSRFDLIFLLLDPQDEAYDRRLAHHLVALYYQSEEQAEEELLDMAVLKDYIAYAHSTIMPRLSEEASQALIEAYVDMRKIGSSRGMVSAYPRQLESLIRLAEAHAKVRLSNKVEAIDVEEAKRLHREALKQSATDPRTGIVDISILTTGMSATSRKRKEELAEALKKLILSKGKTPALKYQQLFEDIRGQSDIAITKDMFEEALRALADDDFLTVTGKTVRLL
UniProt Q13503: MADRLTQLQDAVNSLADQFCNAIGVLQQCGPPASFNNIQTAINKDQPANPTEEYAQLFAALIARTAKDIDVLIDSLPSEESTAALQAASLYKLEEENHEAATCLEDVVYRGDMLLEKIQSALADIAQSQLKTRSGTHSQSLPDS
UniProt P08582: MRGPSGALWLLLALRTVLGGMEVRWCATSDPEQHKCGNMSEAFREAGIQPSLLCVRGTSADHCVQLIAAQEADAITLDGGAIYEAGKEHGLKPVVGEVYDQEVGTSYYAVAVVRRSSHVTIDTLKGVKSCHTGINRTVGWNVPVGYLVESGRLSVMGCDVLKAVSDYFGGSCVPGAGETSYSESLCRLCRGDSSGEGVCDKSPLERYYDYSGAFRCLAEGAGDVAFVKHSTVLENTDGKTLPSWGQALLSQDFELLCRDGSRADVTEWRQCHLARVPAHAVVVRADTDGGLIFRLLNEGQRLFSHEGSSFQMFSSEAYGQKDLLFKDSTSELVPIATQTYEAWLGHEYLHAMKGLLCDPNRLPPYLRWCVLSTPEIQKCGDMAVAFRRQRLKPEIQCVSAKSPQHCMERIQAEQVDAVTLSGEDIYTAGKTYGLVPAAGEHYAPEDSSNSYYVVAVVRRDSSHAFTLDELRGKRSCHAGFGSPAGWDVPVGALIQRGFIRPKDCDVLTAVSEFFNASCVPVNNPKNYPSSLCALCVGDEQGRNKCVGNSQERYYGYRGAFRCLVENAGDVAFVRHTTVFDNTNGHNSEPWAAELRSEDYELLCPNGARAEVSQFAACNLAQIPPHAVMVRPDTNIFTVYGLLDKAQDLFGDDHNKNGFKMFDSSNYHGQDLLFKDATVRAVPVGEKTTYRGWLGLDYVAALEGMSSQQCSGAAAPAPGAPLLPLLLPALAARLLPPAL
UniProt Q9BV79: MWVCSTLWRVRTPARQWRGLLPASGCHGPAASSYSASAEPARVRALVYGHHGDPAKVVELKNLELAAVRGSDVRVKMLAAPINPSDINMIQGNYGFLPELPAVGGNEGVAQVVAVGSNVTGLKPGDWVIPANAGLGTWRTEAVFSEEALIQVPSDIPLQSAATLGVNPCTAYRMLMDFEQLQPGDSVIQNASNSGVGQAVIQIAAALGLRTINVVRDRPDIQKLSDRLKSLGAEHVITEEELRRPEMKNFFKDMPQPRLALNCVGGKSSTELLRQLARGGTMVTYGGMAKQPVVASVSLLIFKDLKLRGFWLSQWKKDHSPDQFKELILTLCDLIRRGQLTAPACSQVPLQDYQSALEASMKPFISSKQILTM
UniProt Q96MC6: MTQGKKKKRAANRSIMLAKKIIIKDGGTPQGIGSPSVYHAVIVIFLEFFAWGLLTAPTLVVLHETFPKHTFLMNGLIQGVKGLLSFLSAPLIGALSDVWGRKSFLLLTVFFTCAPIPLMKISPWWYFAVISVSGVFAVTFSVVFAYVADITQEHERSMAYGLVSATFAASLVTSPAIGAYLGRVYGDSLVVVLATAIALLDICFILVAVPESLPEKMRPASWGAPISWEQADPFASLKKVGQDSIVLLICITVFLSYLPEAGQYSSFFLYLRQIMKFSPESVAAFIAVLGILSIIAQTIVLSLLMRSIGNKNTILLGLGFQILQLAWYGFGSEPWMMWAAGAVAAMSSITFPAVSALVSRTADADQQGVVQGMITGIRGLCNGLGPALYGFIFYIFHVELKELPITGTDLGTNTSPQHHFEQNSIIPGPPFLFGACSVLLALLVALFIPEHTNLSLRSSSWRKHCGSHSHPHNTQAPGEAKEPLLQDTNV
UniProt Q10469: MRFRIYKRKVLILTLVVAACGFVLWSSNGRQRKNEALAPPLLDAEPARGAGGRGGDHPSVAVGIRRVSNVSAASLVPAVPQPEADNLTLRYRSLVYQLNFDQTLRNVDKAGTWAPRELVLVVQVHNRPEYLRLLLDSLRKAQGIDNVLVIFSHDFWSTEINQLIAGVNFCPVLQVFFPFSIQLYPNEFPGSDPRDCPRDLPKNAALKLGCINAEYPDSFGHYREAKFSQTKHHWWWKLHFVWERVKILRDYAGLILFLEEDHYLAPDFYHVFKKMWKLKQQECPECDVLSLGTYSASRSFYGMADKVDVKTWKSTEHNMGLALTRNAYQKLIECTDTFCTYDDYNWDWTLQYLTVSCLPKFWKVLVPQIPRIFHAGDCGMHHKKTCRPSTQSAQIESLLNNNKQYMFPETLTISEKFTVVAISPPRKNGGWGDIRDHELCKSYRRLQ
UniProt Q6UX53: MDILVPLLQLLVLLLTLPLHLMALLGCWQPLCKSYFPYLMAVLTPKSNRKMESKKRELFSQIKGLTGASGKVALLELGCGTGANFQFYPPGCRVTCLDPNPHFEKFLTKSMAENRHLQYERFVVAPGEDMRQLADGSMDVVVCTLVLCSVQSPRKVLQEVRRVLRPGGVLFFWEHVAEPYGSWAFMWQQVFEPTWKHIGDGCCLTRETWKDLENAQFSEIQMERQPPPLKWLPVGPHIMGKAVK

Compound: Cc1cc(ccc1-c1ccccc1)C(=O)N1CCCN(CC1)C(=O)CCl [compound 10]
Test: probe-labelled cysteine peptide fold change vs DMSO (competition) (log2 fold change); higher = less target engagement (more negative = stronger competition)
Conditions: THP-1, incubation time: 4 h
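Note: competitive profiling in live THP-1 cells: cysteine peptides tagged with an iodoacetamide desthiobiotin (IA-DTB) probe, intensity after compound treatment relative to DMSO-treated cells.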

With “MCM5_P33992_197_CNTDQAGRPK (UniProt P33992)” as the target, how does the “probe-labelled cysteine peptide fold change” value (10 µM) read?
The value was -0.0288.

And the “probe-labelled cysteine peptide fold change” value (50 µM)?
The value was -0.14.

For “MCM2_P49736_584_GVCLIDEFDK (UniProt P49736)”, which “probe-labelled cysteine peptide fold change” value (10 µM) is on record?
The value was 0.0289.

What about the “probe-labelled cysteine peptide fold change” value (50 µM) of the same target?
Its value is 0.142.

Which results are given for “MDN1_Q9NU22_5386_QYQICLAIDDSSSMVDNHTK (UniProt Q9NU22)”?
probe-labelled cysteine peptide fold change (10 µM): 0.247; probe-labelled cysteine peptide fold change (50 µM): 0.136

Which results are given for “MED24_O75448_546_ILNPDHPCFRPDSTKVESLVALLNNSSEMK (UniProt O75448)”?
probe-labelled cysteine peptide fold change (10 µM): -0.254; probe-labelled cysteine peptide fold change (50 µM): -0.636

“MEPCE_Q7L2J0_522_SCFPASLTASR (UniProt Q7L2J0)” was tested. Which “probe-labelled cysteine peptide fold change” value (10 µM) did it give?
The value was -0.225.

What about the “probe-labelled cysteine peptide fold change” value (50 µM) of the same target?
The value was -0.418.

What does the source list for “MDN1_Q9NU22_3690_LLGSQLLACTLSHNTLFGEAPSDLMVKPDGPYDFYQHPNVPEAR (UniProt Q9NU22)”?
probe-labelled cysteine peptide fold change (10 µM): 0.432; probe-labelled cysteine peptide fold change (50 µM): 0.0904

“MCM6_Q14566_158_THPVHPELVSGTFLCLDCQTVIR (UniProt Q14566)” was tested. Which “probe-labelled cysteine peptide fold change” value (10 µM) did it give?
The value was 0.197.

And the “probe-labelled cysteine peptide fold change” value (50 µM)?
Its value is 0.012.

For “MCM4_P33991_328_IAEPSVCGR (UniProt P33991)”, which “probe-labelled cysteine peptide fold change” value (10 µM) is on record?
Its value is 0.0169.

What about the “probe-labelled cysteine peptide fold change” value (50 µM) of the same target?
Its value is -0.0125.

How did the “probe-labelled cysteine peptide fold change” value (10 µM) turn out when “MCM6_Q14566_351_NLYHNLCTSLFPTIHGNDEVKR (UniProt Q14566)” was run?
The value was 0.0763.

And the “probe-labelled cysteine peptide fold change” value (50 µM)?
The value was -0.122.

“MED21_Q13503_103_LEEENHEAATCLEDVVYR (UniProt Q13503)” was tested. Which “probe-labelled cysteine peptide fold change” value (10 µM) did it give?
Its value is 0.284.

What about the “probe-labelled cysteine peptide fold change” value (50 µM) of the same target?
Its value is 0.455.

“MELTF_P08582_603_SEDYELLCPNGAR (UniProt P08582)” was tested. Which “probe-labelled cysteine peptide fold change” value (10 µM) did it give?
Its value is -0.188.

And the “probe-labelled cysteine peptide fold change” value (50 µM)?
The value was 0.124.

With “METAP1_P53582_255_KLVQTTYECLMQAIDAVKPGVR (UniProt P53582)” as the target, how does the “probe-labelled cysteine peptide fold change” value (10 µM) read?
Its value is -0.112.

What about the “probe-labelled cysteine peptide fold change” value (50 µM) of the same target?
Its value is -0.522.

Which results are given for “MEGF8_Q7Z7M0_930_KGDAACSR (UniProt Q7Z7M0)”?
probe-labelled cysteine peptide fold change (10 µM): 0.0525; probe-labelled cysteine peptide fold change (50 µM): 0.266

Which “probe-labelled cysteine peptide fold change” value (10 µM) does the source give for “MECR_Q9BV79_263_LALNCVGGK (UniProt Q9BV79)” here?
Its value is -0.254.

And the “probe-labelled cysteine peptide fold change” value (50 µM)?
The value was -0.178.

Which results are given for “MGA_Q8IWI9_1146_KLEYTICETEPEQPVR (UniProt Q8IWI9)”?
probe-labelled cysteine peptide fold change (10 µM): -0.333; probe-labelled cysteine peptide fold change (50 µM): -0.12

Which “probe-labelled cysteine peptide fold change” value (10 µM) does the source give for “MFSD14A_Q96MC6_465_HCGSHSHPHNTQAPGEAK (UniProt Q96MC6)” here?
Its value is -0.39.

What about the “probe-labelled cysteine peptide fold change” value (50 µM) of the same target?
Its value is -1.11.

For “MGAT2_Q10469_210_LGCINAEYPDSFGHYR (UniProt Q10469)”, which “probe-labelled cysteine peptide fold change” value (10 µM) is on record?
The value was -0.101.

What about the “probe-labelled cysteine peptide fold change” value (50 µM) of the same target?
Its value is 0.106.

What does the source list for “MGAT2_Q10469_386_TCRPSTQSAQIESLLNNNK (UniProt Q10469)”?
probe-labelled cysteine peptide fold change (10 µM): -0.133; probe-labelled cysteine peptide fold change (50 µM): -0.101

“MCM5_P33992_355_KAIACLLFGGSR (UniProt P33992)” was tested. Which “probe-labelled cysteine peptide fold change” value (10 µM) did it give?
Its value is -0.131.

And the “probe-labelled cysteine peptide fold change” value (50 µM)?
Its value is -1.02.

“METTL7B_Q6UX53_79+92_VALLELGCGTGANFQFYPPGCR (UniProt Q6UX53)” was tested. Which “probe-labelled cysteine peptide fold change” value (10 µM) did it give?
The value was -0.154.

What about the “probe-labelled cysteine peptide fold change” value (50 µM) of the same target?
Its value is -0.146.
